In test [1] the target is Myc-CRB3A mFBD (CRB3A mutant with 3 amino acid point mutations in the FERM-binding domain) (human) (UniProt Q9BUF7). Kind of test: co-IP; anti-Myc immunoprecipitation from lysates of SKCO-15 cells transfected with Myc-Crb3 WT or mutants; relaxation lysis buffer (10 mM HEPES, 10 mM NaCl, 3.5 mM MgCl2, 100 mM KCl, 1% octyl glucoside); 5 ug/mL antibody or control IgG overnight at 4°C; protein G Dynabeads; Western blotting for NF2, Ezrin, PALS1 and Myc-tag. In general terms: A western blot detects proteins with antibodies after separation by electrophoresis.

By UniProt entry, the sequences of proteins in these tests, tags left out. Where a name states a change or a piece, a line headed by the entry shows the natural chain unless it says otherwise.
UniProt Q9BUF7: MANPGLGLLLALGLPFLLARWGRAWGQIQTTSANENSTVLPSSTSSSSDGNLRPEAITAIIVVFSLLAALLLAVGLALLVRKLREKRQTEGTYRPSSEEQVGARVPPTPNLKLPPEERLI
UniProt P35240: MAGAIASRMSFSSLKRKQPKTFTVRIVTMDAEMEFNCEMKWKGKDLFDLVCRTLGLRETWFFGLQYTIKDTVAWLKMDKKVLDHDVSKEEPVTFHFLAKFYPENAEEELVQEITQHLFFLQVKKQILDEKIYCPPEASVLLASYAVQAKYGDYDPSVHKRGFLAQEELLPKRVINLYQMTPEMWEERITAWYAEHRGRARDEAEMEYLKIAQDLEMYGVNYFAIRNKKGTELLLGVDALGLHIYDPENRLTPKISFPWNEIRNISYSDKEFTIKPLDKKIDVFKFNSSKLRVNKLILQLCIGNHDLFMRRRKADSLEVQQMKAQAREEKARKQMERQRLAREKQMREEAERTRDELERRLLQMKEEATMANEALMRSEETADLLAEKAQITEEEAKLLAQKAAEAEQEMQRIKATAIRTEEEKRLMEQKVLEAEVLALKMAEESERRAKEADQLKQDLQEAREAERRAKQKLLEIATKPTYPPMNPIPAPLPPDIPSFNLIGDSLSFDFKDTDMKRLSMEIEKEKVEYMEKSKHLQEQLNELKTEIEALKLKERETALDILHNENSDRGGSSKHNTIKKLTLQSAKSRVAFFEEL
UniProt Q8N3R9: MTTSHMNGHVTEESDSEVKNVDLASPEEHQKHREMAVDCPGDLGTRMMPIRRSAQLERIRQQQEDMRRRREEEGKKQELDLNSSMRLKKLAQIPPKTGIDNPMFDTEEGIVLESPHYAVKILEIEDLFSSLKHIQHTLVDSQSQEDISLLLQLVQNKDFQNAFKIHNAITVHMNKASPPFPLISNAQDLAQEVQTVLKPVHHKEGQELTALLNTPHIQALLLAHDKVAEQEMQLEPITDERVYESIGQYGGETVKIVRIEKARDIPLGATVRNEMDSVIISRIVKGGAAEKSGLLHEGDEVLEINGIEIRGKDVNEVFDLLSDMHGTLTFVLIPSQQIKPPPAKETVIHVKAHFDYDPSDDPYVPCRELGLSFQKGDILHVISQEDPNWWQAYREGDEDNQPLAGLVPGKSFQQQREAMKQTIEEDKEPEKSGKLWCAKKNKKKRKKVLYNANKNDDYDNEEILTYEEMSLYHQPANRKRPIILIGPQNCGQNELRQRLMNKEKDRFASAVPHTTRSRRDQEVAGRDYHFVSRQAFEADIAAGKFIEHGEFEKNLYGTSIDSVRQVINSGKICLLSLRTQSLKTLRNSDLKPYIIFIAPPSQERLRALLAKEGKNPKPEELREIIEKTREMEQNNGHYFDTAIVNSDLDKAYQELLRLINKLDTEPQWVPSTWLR

The target in test [2] is Myc-CRB3A ΔPBM (CRB3A mutant lacking the ERLI sequence) (human) (UniProt Q9BUF7). The test is described as above.

These are yes or no findings as the source states them, for the method shown. Binding seen in cells or lysates may run through a third protein. Binding can be weak; no strength is given.

For “Merlin (NF2), endogenous (from UniProt P35240 1-595)”, the binding entry in test [1] and in test [2] was “binds” throughout. On to “PALS1 (protein associated with Lin seven), endogenous (from UniProt Q8N3R9 1-675)”, for which, in test [1], the binding result is listed as “binds”.
